Measurements as given in the supplement of paper PMC10849652.
Some of the results follow.

Protein sequences, listed by entry. Tags and fused reporters are not part of them. Lines headed by an entry give the natural chain unless they say otherwise; changes in a name come on top.
UniProt P07947, whole entry, looked up: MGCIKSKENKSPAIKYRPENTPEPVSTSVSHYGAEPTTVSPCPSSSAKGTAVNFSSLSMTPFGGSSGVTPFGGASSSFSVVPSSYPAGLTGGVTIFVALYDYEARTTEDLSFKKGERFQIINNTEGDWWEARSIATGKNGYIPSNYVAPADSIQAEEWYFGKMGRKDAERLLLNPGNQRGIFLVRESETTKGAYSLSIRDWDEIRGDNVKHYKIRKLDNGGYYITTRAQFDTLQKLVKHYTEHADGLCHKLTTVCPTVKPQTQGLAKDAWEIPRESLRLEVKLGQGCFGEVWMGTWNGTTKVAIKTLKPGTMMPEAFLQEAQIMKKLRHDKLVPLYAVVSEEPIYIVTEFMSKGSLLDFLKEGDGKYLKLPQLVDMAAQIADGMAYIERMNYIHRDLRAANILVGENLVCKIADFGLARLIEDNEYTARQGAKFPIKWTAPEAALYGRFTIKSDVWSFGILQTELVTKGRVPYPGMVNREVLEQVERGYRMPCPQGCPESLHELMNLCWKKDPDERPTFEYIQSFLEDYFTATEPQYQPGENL
UniProt Q9NUD5: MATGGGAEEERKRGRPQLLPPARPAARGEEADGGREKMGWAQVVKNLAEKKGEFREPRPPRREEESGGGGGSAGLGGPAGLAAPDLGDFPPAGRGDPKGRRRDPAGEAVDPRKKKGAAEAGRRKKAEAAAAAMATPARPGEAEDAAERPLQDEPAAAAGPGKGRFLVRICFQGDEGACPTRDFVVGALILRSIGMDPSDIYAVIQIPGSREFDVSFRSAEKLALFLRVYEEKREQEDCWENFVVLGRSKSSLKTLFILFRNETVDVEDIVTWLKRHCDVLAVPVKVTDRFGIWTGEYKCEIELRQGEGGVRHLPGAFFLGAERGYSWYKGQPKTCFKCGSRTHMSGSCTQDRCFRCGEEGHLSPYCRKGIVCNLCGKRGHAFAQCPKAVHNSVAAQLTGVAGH
UniProt Q5VVQ6: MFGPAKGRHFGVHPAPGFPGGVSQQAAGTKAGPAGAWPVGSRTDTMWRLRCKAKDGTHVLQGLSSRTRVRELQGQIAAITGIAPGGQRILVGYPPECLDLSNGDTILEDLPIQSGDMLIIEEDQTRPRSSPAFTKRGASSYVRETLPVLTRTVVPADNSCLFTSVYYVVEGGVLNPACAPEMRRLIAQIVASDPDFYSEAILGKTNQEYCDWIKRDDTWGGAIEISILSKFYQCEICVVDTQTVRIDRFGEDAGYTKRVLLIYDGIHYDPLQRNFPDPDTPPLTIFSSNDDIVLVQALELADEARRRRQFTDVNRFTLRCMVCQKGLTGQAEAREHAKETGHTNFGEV
UniProt Q8NCN2: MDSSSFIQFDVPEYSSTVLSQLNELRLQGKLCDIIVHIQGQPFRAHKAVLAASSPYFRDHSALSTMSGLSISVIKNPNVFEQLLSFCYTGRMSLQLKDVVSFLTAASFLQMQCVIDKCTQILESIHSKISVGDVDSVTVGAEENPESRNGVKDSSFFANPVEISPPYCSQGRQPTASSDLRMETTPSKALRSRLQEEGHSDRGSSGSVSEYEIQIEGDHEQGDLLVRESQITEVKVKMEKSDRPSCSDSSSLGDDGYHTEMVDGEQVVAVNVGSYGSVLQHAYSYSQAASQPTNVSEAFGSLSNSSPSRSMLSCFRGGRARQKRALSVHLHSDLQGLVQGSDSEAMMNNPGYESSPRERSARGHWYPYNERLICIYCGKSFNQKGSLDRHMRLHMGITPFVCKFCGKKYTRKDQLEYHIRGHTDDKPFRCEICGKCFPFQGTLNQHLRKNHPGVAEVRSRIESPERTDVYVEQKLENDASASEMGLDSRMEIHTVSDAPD
UniProt Q5W0Z9: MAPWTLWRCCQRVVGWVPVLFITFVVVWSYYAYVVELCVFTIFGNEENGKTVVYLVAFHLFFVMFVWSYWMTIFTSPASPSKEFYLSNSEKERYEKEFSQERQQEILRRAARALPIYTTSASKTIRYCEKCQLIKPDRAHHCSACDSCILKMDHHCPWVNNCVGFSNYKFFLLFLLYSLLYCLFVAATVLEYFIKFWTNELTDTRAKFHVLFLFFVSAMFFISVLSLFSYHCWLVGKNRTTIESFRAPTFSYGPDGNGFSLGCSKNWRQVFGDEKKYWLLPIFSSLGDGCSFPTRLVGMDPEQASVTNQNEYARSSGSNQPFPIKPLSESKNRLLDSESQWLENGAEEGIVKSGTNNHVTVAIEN
UniProt O43543: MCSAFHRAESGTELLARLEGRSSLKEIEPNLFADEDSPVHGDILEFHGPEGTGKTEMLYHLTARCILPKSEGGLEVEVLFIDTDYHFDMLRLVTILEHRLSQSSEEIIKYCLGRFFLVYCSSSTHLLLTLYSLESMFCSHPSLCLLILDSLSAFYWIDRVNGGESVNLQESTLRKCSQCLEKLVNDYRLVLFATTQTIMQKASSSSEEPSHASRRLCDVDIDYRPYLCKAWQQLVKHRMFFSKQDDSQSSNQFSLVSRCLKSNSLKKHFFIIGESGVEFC
UniProt Q68DK2: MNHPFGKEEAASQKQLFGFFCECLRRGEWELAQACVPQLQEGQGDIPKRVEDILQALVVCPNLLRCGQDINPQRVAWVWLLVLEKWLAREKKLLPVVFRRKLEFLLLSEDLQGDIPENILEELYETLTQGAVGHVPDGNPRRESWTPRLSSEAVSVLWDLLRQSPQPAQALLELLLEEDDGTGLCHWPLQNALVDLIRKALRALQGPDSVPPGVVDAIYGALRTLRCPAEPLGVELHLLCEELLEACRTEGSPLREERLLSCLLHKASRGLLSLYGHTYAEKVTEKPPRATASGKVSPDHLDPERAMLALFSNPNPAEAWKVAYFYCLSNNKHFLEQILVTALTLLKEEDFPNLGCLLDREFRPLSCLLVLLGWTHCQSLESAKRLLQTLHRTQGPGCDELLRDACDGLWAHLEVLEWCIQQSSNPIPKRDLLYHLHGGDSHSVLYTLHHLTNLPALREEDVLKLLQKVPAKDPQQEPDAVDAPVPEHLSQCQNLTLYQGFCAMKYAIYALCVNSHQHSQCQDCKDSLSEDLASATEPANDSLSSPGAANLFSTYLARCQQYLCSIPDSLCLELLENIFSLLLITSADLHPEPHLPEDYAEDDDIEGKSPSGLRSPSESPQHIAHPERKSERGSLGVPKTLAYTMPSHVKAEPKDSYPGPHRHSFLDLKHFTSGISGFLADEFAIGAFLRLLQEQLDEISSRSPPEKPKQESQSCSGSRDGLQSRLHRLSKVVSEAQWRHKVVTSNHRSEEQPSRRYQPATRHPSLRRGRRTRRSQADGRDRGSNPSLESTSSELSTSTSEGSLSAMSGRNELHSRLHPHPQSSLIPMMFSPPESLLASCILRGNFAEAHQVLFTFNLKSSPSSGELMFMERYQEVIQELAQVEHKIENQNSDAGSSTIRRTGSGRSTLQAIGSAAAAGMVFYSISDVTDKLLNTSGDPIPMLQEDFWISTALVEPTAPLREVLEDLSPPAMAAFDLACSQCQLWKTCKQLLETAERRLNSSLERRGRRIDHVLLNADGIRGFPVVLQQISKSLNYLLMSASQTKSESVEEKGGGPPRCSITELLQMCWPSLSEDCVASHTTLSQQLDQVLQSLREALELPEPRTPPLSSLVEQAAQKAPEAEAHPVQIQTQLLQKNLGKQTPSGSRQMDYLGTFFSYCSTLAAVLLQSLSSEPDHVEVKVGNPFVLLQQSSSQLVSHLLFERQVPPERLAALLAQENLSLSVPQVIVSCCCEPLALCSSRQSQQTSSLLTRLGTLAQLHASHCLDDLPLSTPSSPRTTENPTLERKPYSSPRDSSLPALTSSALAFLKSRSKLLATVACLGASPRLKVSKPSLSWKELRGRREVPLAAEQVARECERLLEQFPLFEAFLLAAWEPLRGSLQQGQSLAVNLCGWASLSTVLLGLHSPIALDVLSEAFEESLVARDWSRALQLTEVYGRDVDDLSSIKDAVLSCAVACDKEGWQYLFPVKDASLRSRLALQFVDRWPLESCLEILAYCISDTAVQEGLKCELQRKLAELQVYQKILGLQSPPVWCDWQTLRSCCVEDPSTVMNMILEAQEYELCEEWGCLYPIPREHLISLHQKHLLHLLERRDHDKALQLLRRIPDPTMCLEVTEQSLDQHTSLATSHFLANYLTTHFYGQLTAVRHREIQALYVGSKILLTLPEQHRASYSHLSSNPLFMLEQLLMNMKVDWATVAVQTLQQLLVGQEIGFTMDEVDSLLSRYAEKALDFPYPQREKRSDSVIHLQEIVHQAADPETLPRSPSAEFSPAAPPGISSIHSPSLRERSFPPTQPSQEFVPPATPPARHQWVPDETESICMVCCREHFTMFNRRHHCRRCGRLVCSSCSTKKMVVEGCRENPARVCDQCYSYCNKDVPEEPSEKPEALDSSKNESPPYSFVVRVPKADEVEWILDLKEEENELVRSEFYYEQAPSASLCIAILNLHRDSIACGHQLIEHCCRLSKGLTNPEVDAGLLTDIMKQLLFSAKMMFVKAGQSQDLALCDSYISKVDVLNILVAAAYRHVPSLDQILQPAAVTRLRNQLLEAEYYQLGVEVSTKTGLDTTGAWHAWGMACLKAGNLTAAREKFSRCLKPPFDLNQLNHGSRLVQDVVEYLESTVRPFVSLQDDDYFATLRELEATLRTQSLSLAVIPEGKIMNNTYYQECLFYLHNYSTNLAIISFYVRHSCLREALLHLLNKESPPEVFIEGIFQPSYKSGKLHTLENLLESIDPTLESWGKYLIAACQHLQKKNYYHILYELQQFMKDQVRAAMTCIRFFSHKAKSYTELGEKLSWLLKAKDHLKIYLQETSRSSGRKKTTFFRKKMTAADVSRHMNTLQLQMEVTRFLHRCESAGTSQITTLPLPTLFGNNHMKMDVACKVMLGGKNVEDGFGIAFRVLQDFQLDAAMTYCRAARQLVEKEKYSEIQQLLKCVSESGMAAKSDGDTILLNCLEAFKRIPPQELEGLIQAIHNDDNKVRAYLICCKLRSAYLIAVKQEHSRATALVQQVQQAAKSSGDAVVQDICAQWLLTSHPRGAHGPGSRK
UniProt P86452: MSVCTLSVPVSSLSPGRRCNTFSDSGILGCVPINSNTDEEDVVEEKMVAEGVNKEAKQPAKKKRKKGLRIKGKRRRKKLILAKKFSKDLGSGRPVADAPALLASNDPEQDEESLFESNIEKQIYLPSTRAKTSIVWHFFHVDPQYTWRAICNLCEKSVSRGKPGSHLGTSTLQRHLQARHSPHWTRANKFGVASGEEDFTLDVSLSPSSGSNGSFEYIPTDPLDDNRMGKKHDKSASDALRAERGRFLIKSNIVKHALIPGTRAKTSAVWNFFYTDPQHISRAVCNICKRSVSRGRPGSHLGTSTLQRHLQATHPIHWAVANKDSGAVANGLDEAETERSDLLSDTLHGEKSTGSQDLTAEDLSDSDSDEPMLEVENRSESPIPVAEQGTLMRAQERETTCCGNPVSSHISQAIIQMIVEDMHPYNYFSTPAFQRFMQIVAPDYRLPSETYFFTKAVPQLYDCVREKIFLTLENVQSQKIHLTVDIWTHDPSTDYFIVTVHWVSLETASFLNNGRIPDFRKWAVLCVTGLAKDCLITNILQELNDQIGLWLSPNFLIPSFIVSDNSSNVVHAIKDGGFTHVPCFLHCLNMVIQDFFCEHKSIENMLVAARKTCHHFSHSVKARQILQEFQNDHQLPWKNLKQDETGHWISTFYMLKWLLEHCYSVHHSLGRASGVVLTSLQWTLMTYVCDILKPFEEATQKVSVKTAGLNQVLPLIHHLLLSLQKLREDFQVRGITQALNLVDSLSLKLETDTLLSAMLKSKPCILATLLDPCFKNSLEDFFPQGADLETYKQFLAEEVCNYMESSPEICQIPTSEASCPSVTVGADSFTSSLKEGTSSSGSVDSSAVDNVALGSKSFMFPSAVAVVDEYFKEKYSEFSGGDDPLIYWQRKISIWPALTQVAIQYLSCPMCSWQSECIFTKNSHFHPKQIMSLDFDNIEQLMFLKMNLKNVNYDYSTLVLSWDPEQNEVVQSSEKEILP
UniProt O15156: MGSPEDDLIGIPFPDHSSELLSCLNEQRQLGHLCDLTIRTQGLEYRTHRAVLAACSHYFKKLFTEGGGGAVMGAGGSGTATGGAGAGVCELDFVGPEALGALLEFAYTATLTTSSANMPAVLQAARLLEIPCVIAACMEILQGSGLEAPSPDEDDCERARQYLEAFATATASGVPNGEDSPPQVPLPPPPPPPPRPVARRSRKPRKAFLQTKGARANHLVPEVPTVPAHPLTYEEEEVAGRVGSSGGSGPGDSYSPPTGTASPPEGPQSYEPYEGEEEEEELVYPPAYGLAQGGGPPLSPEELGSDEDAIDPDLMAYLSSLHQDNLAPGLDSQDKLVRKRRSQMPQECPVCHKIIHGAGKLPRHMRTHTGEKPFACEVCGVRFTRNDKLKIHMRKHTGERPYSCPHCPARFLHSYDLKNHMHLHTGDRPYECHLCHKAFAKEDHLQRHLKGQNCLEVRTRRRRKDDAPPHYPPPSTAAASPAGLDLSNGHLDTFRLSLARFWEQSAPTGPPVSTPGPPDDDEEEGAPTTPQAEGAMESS

Assays:
Test in all cases: log2 fold change, soluble protein after heating vs DMSO (PISA); higher = thermal stabilisation; K562 lysate, 10 uM; active = over 0.2 and 3.5 SD of the protein, either way, in both replicates (recomputed)
[1] = compound: CN1CC[C@H](c2c(O)cc(O)c3c(=O)cc(-c4ccccc4Cl)oc23)[C@H](O)C1 [alvocidib]
In short: (§1)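 Dounce homogenisation of K562 pellets in PBS pH 7.4 with 1 mM MgCl2 produced a crude extract, used at 1 mg/mL protein. Exposure to 10 μM compound lasted 30 min, and aliquots were then heated for 3 min across 48°C-58°C, pooled and brought to 0.5% NP-40 at 4°C. The supernatant after 21,000xg for 90 min was quantified by TMTpro 16plex LC-MS/MS with channel sums equalised. Duplicate values are given as log-two fold change in thermal stability relative to solvent controls.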

[2] = compound: CN1CCc2c(c3ccccc3n2Cc2ccc(C(=O)NO)cc2)C1 [Tubastatin A]
In short: as §1

[3] = compound: CNC(=O)C1=CC=CC=C1NC2=NC(=NC=C2Cl)NC3=C(C=C(C=C3)N4CCOCC4)OC
In short: as §1

[4] = compound: CNC(=O)c1ccc(Nc2ncc(C(F)(F)F)c(NCc3nccnc3N(C)S(C)(=O)=O)n2)cc1 [defactinib]
In short: as §1

[5] = compound: CNc1nc(-c2ccc3c(N)n[nH]c3c2)cc(N2C[C@@H](C(=O)NC3CCCCC3)CC[C@H]2C)n1
In short: as §1

[6] = compound: COC(=O)N[C@@H](C)CNc1nccc(-c2cn(C(C)C)nc2-c2cc(Cl)cc(NS(C)(=O)=O)c2F)n1 [encorafenib]
In short: as §1

[7] = compound: COC(=O)[C@H](CCSC)NC(=O)C1=C(C=C(C=C1)NC[C@H](CS)N)C2=CC=CC=C2
In short: as §1

[8] = compound: COc1cc(Nc2ncc3c(n2)-c2ccc(Cl)cc2C(c2c(F)cccc2OC)=NC3)ccc1C(=O)O [alisertib]
In short: as §1

[9] = compound: COc1cc2nc(-c3cc(F)ccc3O)nc(N[C@@H]3CNC[C@H]3C(C)(C)O)c2cc1OC
In short: as §1

[10] = compound: COc1cc2ncnc(Nc3ccc(F)c(Cl)c3)c2cc1OCCCN1CCOCC1 [gefitinib]
In short: as §1

Measured: log2 fold change

YTHDF2 (UniProt Q9Y5A9)
inactive: [1] 0.032 | [2] -0.163 | [3] -0.007 | [4] 0.019 | [5] -0.078 | [6] 0.123 | [7] -0.064 | [8] 0.028 | [9] -0.006 | [10] 0.01

YES1 (UniProt P07947)
inactive: [1] -0.065 | [2] 0.171 | [3] -0.003 | [4] -0.228 | [5] -0.094 | [6] -0.009 | [7] -0.024 | [8] 0.049 | [9] 0.087 | [10] -0.13

ZFYVE16 (UniProt Q7Z3T8)
inactive: [1] -0.028 | [2] 0.003 | [3] 0.01 | [4] 0.022 | [5] 0.005 | [6] 0.045 | [7] -0.045 | [8] -0.013 | [9] 0.004 | [10] 0.003

XPO4 (UniProt Q9C0E2)
inactive: [1] -0.013 | [2] -0.067 | [3] -0.014 | [4] -0.008 | [5] -0.037 | [6] 0.036 | [7] -0.116 | [8] -0.028 | [9] -0.012 | [10] -0.002

ZCCHC3 (UniProt Q9NUD5)
inactive: [1] -0.002 | [2] -0.05 | [3] -0.008 | [4] 0.013 | [5] -0.01 | [6] -0.009 | [7] -0.019 | [8] 0.028 | [9] 0.008 | [10] 0.034

YEATS4 (UniProt O95619)
inactive: [1] 0.105 | [2] 0.004 | [3] 0.012 | [4] 0.007 | [5] -0.054 | [6] -0.004 | [7] -0.062 | [9] -0.008 | [10] -0.064
active: [8] 0.315

XPO1 (UniProt O14980)
inactive: [1] 0.005 | [2] -0.096 | [3] -0.011 | [4] 0.016 | [5] -0.013 | [6] 0.034 | [7] -0.101 | [8] 0.013 | [9] 0.023 | [10] -0.007

YIPF4 (UniProt Q9BSR8)
inactive: [1] 0.033 | [2] 0.034 | [3] 0.021 | [4] 0.041 | [5] 0.091 | [6] 0.022 | [7] -0.036 | [8] 0.028 | [9] 0.011 | [10] -0.049

ZC3HC1 (UniProt Q86WB0)
inactive: [1] 0.049 | [2] -0.101 | [3] 0.018 | [4] -0.015 | [5] 0.034 | [6] -0.001 | [7] 0.078 | [8] 0.022 | [9] -0.013 | [10] 0.024

ZC3H8 (UniProt Q8N5P1)
inactive: [1] -0.002 | [2] 0.04 | [3] 0.046 | [4] -0.006 | [5] 0.01 | [6] -0.013 | [7] -0.016 | [8] -0.027 | [9] 0.035 | [10] 0.033

YWHAQ (UniProt P27348)
inactive: [1] 0.16 | [2] -0.021 | [3] -0.006 | [4] 0 | [5] 0.023 | [6] -0.025 | [7] -0.045 | [8] -0.014 | [9] 0.008 | [10] -0.06

XRCC4 (UniProt Q13426)
inactive: [1] -0.034 | [2] -0.021 | [3] -0.046 | [4] 0.015 | [5] -0.042 | [6] 0.025 | [7] -0.018 | [8] -0.009 | [9] -0.009 | [10] 0.029

YTHDF3 (UniProt Q7Z739)
inactive: [1] 0.03 | [2] -0.108 | [3] -0.071 | [4] -0.05 | [5] -0.112 | [6] 0.097 | [7] 0.024 | [8] 0.043 | [9] 0.009 | [10] 0.013

ZBTB8OS (UniProt Q8IWT0)
inactive: [1] -0.026 | [2] 0.01 | [3] -0.013 | [4] 0.013 | [5] -0.054 | [6] -0.002 | [7] 0.02 | [8] -0.043 | [9] -0.065 | [10] 0.005

YOD1 (UniProt Q5VVQ6)
inactive: [1] -0.004 | [2] 0.078 | [3] -0.01 | [4] -0.028 | [5] -0.014 | [6] 0.013 | [7] 0.008 | [8] 0.022 | [9] -0.044 | [10] -0.025

ZFYVE27 isoform 2 (UniProt Q5T4F4)
inactive: [2] 0.114 | [3] 0.096 | [4] 0.011 | [5] -0.019 | [6] 0.061 | [7] -0.218 | [9] -0.029

ZFYVE19 isoform 3 (UniProt Q96K21)
inactive: [9] -0.006

XRCC1 (UniProt F5H8D7)
inactive: [3] -0.31 | [4] 0.378 | [5] 0.157 | [6] 0.031 | [7] -0.043

YWHAZ (UniProt E7EX29)
inactive: [6] 0.07 | [7] 0.019 | [9] 0.069

ZBTB34 (UniProt Q8NCN2)
inactive: [2] -0.154 | [5] 0.253 | [9] -0.018

ZDHHC20 (UniProt Q5W0Z9)
inactive: [1] 0.007 | [4] 0.019 | [5] -0.019 | [6] 0.043 | [7] -0.002 | [9] -0.04

ZFAT (UniProt Q9P243)
inactive: [3] 0.015 | [6] -0.015 | [7] 0.007 | [8] 0.12 | [10] 0.171

ZBTB43 (UniProt O43298)
inactive: [2] 0.016 | [3] 0.081 | [4] -0.106 | [5] 0.022 | [6] -0.025 | [7] -0.047 | [9] -0.01

XRCC2 (UniProt O43543)
inactive: [1] 0.071 | [5] 0.084 | [8] 0.111 | [10] -0.31

ZBED5 (UniProt Q49AG3)
inactive: [3] -0.051 | [5] 0.036

ZFYVE26 (UniProt Q68DK2)
inactive: [2] 0.009 | [3] -0.001 | [4] 0.087 | [8] 0.02 | [9] 0.043 | [10] 0.026

2 records picked at random from the list so far:
YWHAZ (UniProt E7EX29)
inactive: [6] 0.07 | [7] 0.019 | [9] 0.069

YES1 (UniProt P07947)
inactive: [1] -0.065 | [2] 0.171 | [3] -0.003 | [4] -0.228 | [5] -0.094 | [6] -0.009 | [7] -0.024 | [8] 0.049 | [9] 0.087 | [10] -0.13

Further entries follow.

ZCCHC7 (UniProt Q8N3Z6)
inactive: [5] -0.109 | [8] -0.085 | [10] 0.152

ZBTB48 (UniProt P10074)
inactive: [4] -0.018 | [5] 0.067

ZFP92 (UniProt A6NM28)
inactive: [4] 0.288 | [6] 0.136 | [7] 0.05

ZBTB5 (UniProt O15062)
inactive: [2] -0.02 | [3] -0.003 | [4] 0.2 | [5] 0.038 | [6] 0.234 | [7] 0.063

ZBED8 (UniProt Q8IZ13)
inactive: [2] 0.025 | [3] 0.117 | [4] 0.042 | [5] -0.017 | [6] -0.066 | [7] 0.045 | [8] -0.05 | [9] 0.026 | [10] -0.049

ZC3H12A (UniProt Q5D1E8)
inactive: [2] -0.037 | [3] -0.115 | [5] -0.177 | [6] 0.08 | [7] -0.03 | [8] -0.109 | [10] 0.177

ZBTB17 isoform 2 (UniProt Q13105)
inactive: [3] -0.076 | [5] 0.027 | [9] 0.015

ZC3H10 (UniProt Q96K80)
inactive: [5] 0.032

YBEY (UniProt P58557)
inactive: [3] -0.056 | [4] 0.016 | [5] -0.066 | [6] -0.037 | [7] 0.071

ZC3H3 (UniProt Q8IXZ2)
inactive: [1] 0.069 | [9] 0.046

ZCCHC10 (UniProt Q8TBK6)
inactive: [2] -0.228 | [5] 0.222 | [6] -0.098 | [7] 0.105

ZFHX4 isoform 5 (UniProt Q86UP3)
inactive: [2] -0.266 | [3] 0.037 | [8] -0.142 | [9] -0.124 | [10] 0.023

YIPF1 (UniProt Q9Y548)
inactive: [5] 0.092 | [8] 0.157 | [9] 0.046 | [10] -0.006

YEATS2 (UniProt Q9ULM3)
inactive: [2] -0.291 | [3] -0.087 | [4] -0.117 | [6] 0.054 | [7] 0.081 | [8] -0.166 | [9] 0.069 | [10] 0.046

YWHAZ (UniProt E7ESK7)
inactive: [1] -0.013 | [3] -0.011 | [4] -0.035 | [5] -0.086 | [6] 0.15 | [7] -0.003 | [9] 0.005

XRCC5 (UniProt C9JZ81)
inactive: [8] -0.022 | [9] 0.103 | [10] 0.23

XPOT (UniProt F5GYW6)
inactive: [9] 0.121

ZBTB37 (UniProt Q5TC79)
inactive: [2] 0.063

ZCCHC9 (UniProt Q8N567)
inactive: [2] -0.012 | [3] 0.012 | [4] -0.043 | [5] 0.004 | [6] 0.109 | [7] -0.028 | [9] -0.025

ZEB2 (UniProt O60315)
inactive: [2] -0.065 | [3] 0.003 | [4] 0.076 | [5] -0.024 | [6] 0.057 | [7] -0.043 | [8] -0.375 | [9] 0.043 | [10] -0.151

ZCCHC4 (UniProt Q9H5U6)
inactive: [1] -0.082 | [4] -0.012 | [5] 0.221 | [6] -0.28 | [7] 0.156 | [8] 0.081 | [10] 0.044

ZBTB39 (UniProt O15060)
inactive: [2] 0.2 | [5] 0.161

ZBED4 (UniProt O75132)
inactive: [4] -0.141

ZBED6 (UniProt P86452)
inactive: [2] 0.096 | [3] -0.063 | [5] 0.33 | [9] 0.179

ZBTB11 (UniProt O95625)
inactive: [1] -0.03 | [3] 0.152 | [4] -0.067 | [8] 0.08 | [9] -0.172 | [10] -0.05

YTHDC1 (UniProt Q96MU7)
inactive: [1] -0.14 | [4] 0.271 | [5] -0.644 | [6] -0.167 | [7] -0.062 | [8] -0.215 | [9] 0.031 | [10] 0.114

ZBTB7B isoform 2 (UniProt O15156)
inactive: [5] 0.007

ZFX isoform 3 (UniProt P17010)
inactive: [2] -0.099 | [5] -0.052 | [9] -0.082
